About 18,000 (4.4%) of roughly 410,000 compounds were called active. Inconclusive means that the source gave no clear call. Such entries were picked first, then a sample of the others. Cut-off read from the data, not from the text of the source: active = activity change below about -60%; inconclusive = no clear call, values can overlap the other calls; inactive = above about -39%.
Assay: qHTS Assay for inhibitors of the human cytomegalovirus (HCMV)
Conditions: HFF cells, HCMV-luciferase reporter, 72 h; at 57.5 µM; active compounds read low
How it was run: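 Two-dose cell screen: HFF monolayers treated with compounds and infected with luciferase-expressing HCMV at 1 PFU/cell, 72 h at 37C, then lysed for luciferase measurement.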
With `O=C(c1ccc2c3c(cccc13)CC2)C1CCCN(CC2CC2)C1` (centres undefined) the activity change, negative = inhibition was inconclusive: -50%. In the case of `Cc1cc(C)n2c(SCC(O)=C(C#N)c3nc4ccccc4[nH]3)nnc2n1`, the activity change, negative = inhibition is reported as inconclusive: -42.1%. In the case of `Cc1ccc(C(=O)NC2CCS(=O)(=O)C2)cc1S(=O)(=O)N1CCOCC1` (centres undefined), the activity change, negative = inhibition is reported as inconclusive: -49.3%. For `CCN(Cc1cc2cc(C)ccc2[nH]c1=O)S(=O)(=O)c1ccccc1`, the activity change, negative = inhibition was inconclusive: -42.8%. With `COc1nc(Cc2ccc(Cl)cc2)nc2ccccc12` the activity change, negative = inhibition was inconclusive: -47.9%. In the case of `CC(=O)N1c2c(cc(Br)cc2S(=O)(=O)NCc2ccc(C)cc2)CC1C` (centres undefined), the activity change, negative = inhibition is reported as active: -65.9%. For `CC(=O)CSc1nc(N)c(C#N)c(-c2cccs2)c1C#N`, the activity change, negative = inhibition was inconclusive: -56.7%. With `CCN1CCN(CCCOc2ccc(Cl)cc2Br)CC1` the activity change, negative = inhibition was inactive: -9.14%. With `CCc1ccc(CNC(=O)c2ccc(-c3nc(CS(=O)(=O)c4ccccc4)c(C)o3)cc2)cc1` the activity change, negative = inhibition was inconclusive: -46%. For `CC1CCN(C(=O)C2CCC(=O)N(Cc3ccc(Cl)cc3)C2)CC1` (centres undefined), the activity change, negative = inhibition was inconclusive: -40.2%. With `O=C(Nc1cccn2ncnc12)c1cccc(C(F)(F)F)c1` the activity change, negative = inhibition was inconclusive: -41%. For `Nc1nc(NCCCN2CCOCC2)nc(Nc2cccc(F)c2)c1[N+](=O)[O-]`, the activity change, negative = inhibition was inactive: 12.1%. For `CC1CCN(C(=O)c2ccccc2NC(=O)c2cccs2)CC1`, the activity change, negative = inhibition was inconclusive: -59.8%. With `Cn1c2cc(Br)sc2c2cnn(Cc3c(F)cccc3Cl)c(=O)c21` the activity change, negative = inhibition was inactive: 18.1%. In the case of `Cc1cc(NC(=O)c2cnn3c(C(F)F)cc(C4CC4)nc23)no1`, the activity change, negative = inhibition is reported as inactive: 56.7%. For `CC(NC(=O)c1cccc(Br)c1)c1ccccc1` (centres undefined), the activity change, negative = inhibition was active: -69.9%. With `COc1ccc(N(CC(=O)Nc2ccccc2Cl)S(=O)(=O)c2ccc(C)cc2)cc1OC` the activity change, negative = inhibition was inconclusive: -40.6%. With `Cc1cccc(N=Nc2ccc(O)c3ncccc23)c1` the activity change, negative = inhibition was active: -102%. With `C[C@H](CCC(=O)OCc1cn(CC(=O)c2ccc(O)cc2)nn1)C1CC[C@H]2[C@@H]3CC[C@@H]4C[C@H](O)CC[C@]4(C)[C@H]3C[C@H](O)[C@]12C` (some centres undefined) the activity change, negative = inhibition was inactive: 13.1%. With `CCC(Sc1nncn2c1cc1occc12)C(=O)Nc1ccc(C)c(Cl)c1` (centres undefined) the activity change, negative = inhibition was inconclusive: -48.5%. With `Cc1c(NC(=O)/C(C#N)=C/c2ccc(-c3cc(Cl)ccc3Cl)o2)c(=O)n(-c2ccccc2)n1C` the activity change, negative = inhibition was inconclusive: -53.8%. In the case of `CCc1cccc(NC(=O)c2ccc(CNc3c(N4CCCC4)c(=O)c3=O)cc2)c1`, the activity change, negative = inhibition is reported as inconclusive: -57.2%. With `Cc1c2cnn(CC(=O)Nc3cccc(C(F)(F)F)c3)c(=O)c2c(C)n1Cc1ccccc1Cl` the activity change, negative = inhibition was inactive: -4.89%. In the case of `CC(=O)c1cccc(NC(=O)CCCOc2ccc(C)cc2)c1`, the activity change, negative = inhibition is reported as inconclusive: -55.5%. With `CC(C)(Cc1ccc(O)cc1)NC(=O)CC(=O)N=Nc1c(O)[nH]c2ccc(Br)cc12` the activity change, negative = inhibition was inconclusive: -48.4%. In the case of `Cc1ccc(CN2C3CCCC2CC(NC(=O)Nc2cccc(F)c2)C3)cc1` (centres undefined), the activity change, negative = inhibition is reported as inconclusive: -40.4%. With `Cc1cccc(Nc2nc(C)cc(C)n2)c1` the activity change, negative = inhibition was inactive: 17.2%. In the case of `CC(C)(C)c1cc(NC(=O)COC(=O)c2ccccc2)n(-c2ccccc2)n1`, the activity change, negative = inhibition is reported as inconclusive: -41.7%. In the case of `CNCc1c(OCc2ccccc2F)ccc2ccccc12`, the activity change, negative = inhibition is reported as inconclusive: -43.4%. In the case of `CC(C)C(C(=O)Nc1nccs1)c1ccc(Cl)cc1` (centres undefined), the activity change, negative = inhibition is reported as inconclusive: -56.5%. With `CC(C)Nc1ncnc2c1ncn2[C@H]1CN(Cc2ccc(Cl)cc2)C[C@@H](CO)O1` the activity change, negative = inhibition was inactive: 21.3%. In the case of `O=C(C[C@H]1CC[C@@H](NC(=O)Nc2ccc3c(c2)OCO3)[C@@H](CO)O1)NCc1ccccc1`, the activity change, negative = inhibition is reported as inconclusive: -40.6%. In the case of `Cc1ccccc1Nc1nc(=O)c2cc([N+](=O)[O-])ccc2s1`, the activity change, negative = inhibition is reported as inconclusive: -51.7%. With `CCC(NC(=O)NCc1ccc2c(c1)OCO2)(C(F)(F)F)C(F)(F)F` the activity change, negative = inhibition was inconclusive: -41.4%. In the case of `COc1ccccc1CCNC(=O)CCn1nc(C)c2c(C)n(-c3ccccc3)nc2c1=O`, the activity change, negative = inhibition is reported as inconclusive: -43.4%. With `COc1ccc(CCN(C)CC(O)c2ccccc2)cc1OC` (centres undefined) the activity change, negative = inhibition was active: -73.9%. With `CCC[C@H](N[C@@H](CCC)[C@H](O)c1ccccc1)[C@H](O)c1ccccc1` the activity change, negative = inhibition was inconclusive: -41.7%. In the case of `Cc1ccc(-n2nnnc2-c2cnc(-c3cccnc3)nc2C(F)(F)F)cc1`, the activity change, negative = inhibition is reported as inconclusive: -41.8%. For `CCCNC(=O)CSc1nc2nc(C)c(Cc3ccccc3Cl)c(C)n2n1`, the activity change, negative = inhibition was inactive: -21.8%. With `CC(C)(C)C(=O)OCC12CCC(O1)C1(C)C(=O)OCC21` (centres undefined) the activity change, negative = inhibition was inconclusive: -46.9%. In the case of `Cc1ccc(-c2noc(-c3nnn(CC(=O)Nc4cc(C)cc(C)c4)c3N)n2)cc1`, the activity change, negative = inhibition is reported as inactive: 16.2%. In the case of `CC(=O)NC12CC3CC(C1)CC(C(=O)Nc1nc4ccc(F)cc4s1)(C3)C2`, the activity change, negative = inhibition is reported as inactive: 30.3%. With `O=S(=O)(c1ccc2ccccc2c1)N(CC1CO1)c1ccccc1` (centres undefined) the activity change, negative = inhibition was inconclusive: -43.6%. With `Cc1cc(F)ccc1NCc1ccccc1-c1nnc(-c2ccccc2Cl)o1` the activity change, negative = inhibition was inactive: 17.7%. In the case of `COc1ccc(C(=O)N(Cc2cc(OC)c(OC)c(OC)c2)CC2CCCO2)cc1` (centres undefined), the activity change, negative = inhibition is reported as inconclusive: -41.3%. With `CC1CCCC(C)N1C(=O)CSc1nnc(C2CCCCC2)o1` (centres undefined) the activity change, negative = inhibition was inactive: 20.6%. In the case of `Oc1c(CN2CCOCC2)cc(CN2CCOCC2)c(O)c1O`, the activity change, negative = inhibition is reported as inactive: -7.82%. With `COc1ccc2[nH]c(C(=O)N/N=C/c3ccc(O)cc3O)cc2c1` the activity change, negative = inhibition was active: -89.7%. For `Cc1ccc(S(=O)(=O)N2CCOCC2)cc1NC(=O)Nc1ccc([N+](=O)[O-])cc1`, the activity change, negative = inhibition was inconclusive: -50.8%. In the case of `CC(NC(=O)/C=C/c1ccccc1[N+](=O)[O-])C1CC2CCC1C2` (centres undefined), the activity change, negative = inhibition is reported as inconclusive: -51.6%. In the case of `N#C/C(=C\c1ccco1)C(=O)Nc1cccc2ncccc12`, the activity change, negative = inhibition is reported as inconclusive: -43.2%. For `CCC(Cc1ccccc1)NC(=O)C1=C(C)C(=O)OC12CCC(C)CC2` (centres undefined), the activity change, negative = inhibition was inconclusive: -47.7%. For `CC(C)C[C@H]1CN=C(N(C)C)N1CCCCc1ccccc1`, the activity change, negative = inhibition was inconclusive: -47.4%. In the case of `CCC(Sc1ncnc2c1c(-c1ccccc1)cn2-c1ccc(OC)cc1)C(=O)OC` (centres undefined), the activity change, negative = inhibition is reported as inconclusive: -44.8%. With `CCc1ccc2[nH]c(C(=O)Nc3ccc(C)c(F)c3)cc2c1` the activity change, negative = inhibition was inactive: -28.4%. In the case of `O=C(c1ccc(N2CCN(C(=O)c3ccc(F)c(F)c3)CC2)cc1)c1cccc(F)c1`, the activity change, negative = inhibition is reported as active: -72.4%. In the case of `CCCn1c2c(c(=N)c3c1CCC3)CCCC2`, the activity change, negative = inhibition is reported as active: -96.8%. With `Cc1ccc(Cn2nc(C)c(C(=O)NCC(c3cccs3)N3CCOCC3)c2Cl)cc1` (centres undefined) the activity change, negative = inhibition was inconclusive: -42.9%. In the case of `CC(C)Nc1ccc(-c2nc(-c3ccco3)no2)cc1[N+](=O)[O-]`, the activity change, negative = inhibition is reported as inactive: 28.7%. For `Cc1ccc(C2c3[nH]c4ccccc4c3CCN2C(=O)c2cccc(C)c2)cc1` (centres undefined), the activity change, negative = inhibition was inactive: -22.4%. With `CCCCC[C@@H]1C=C(C(=O)O)[C@H](c2ccc(OC)c(OC)c2)N1S(=O)(=O)c1ccc(C)cc1` the activity change, negative = inhibition was inactive: -9.7%. For `CCC(C)NC(=O)c1ccccc1NC(=O)CN1C(=O)c2cccc3cccc1c23` (centres undefined), the activity change, negative = inhibition was inactive: -4.93%. In the case of `Cc1ccc(/C=N/NC(=O)c2cc(C3CC3)nc3ccccc23)o1`, the activity change, negative = inhibition is reported as inconclusive: -57.6%. With `COc1ccccc1Cn1c(=S)[nH]c2cc(C(=O)NCC(OC)OC)ccc2c1=O` the activity change, negative = inhibition was inactive: -37.6%. In the case of `c1ccc(Nc2c(-c3c[nH]c4ccccc34)nc3ccccn23)cc1`, the activity change, negative = inhibition is reported as inactive: 101%. For `COc1ccc(N(CC(=O)NCc2cccs2)S(=O)(=O)c2cccc(C)c2)cc1`, the activity change, negative = inhibition was inactive: -30.2%. For `CCC(c1nnnn1Cc1ccco1)N(Cc1ccccc1OC)Cc1cc2cc(C)ccc2[nH]c1=O` (centres undefined), the activity change, negative = inhibition was inactive: -10.4%. In the case of `CCCCCC(=O)N[C@@H](c1ccccc1)[C@@H](O)C(=O)O[C@H]1C[C@@]2(O)[C@@H](OC(=O)c3ccccc3)C3[C@](C)(C(=O)[C@H](O)C(=C1C)C2(C)C)[C@@H](OC1OCC(O)C(O)C1O)C[C@H]1OC[C@@]31OC(C)=O` (some centres undefined), the activity change, negative = inhibition is reported as inactive: -35.1%. For `CON(C)S(=O)(=O)c1cccc(C(=O)Nc2ccc(S(=O)(=O)NC3=NCCCCC3)cc2)c1`, the activity change, negative = inhibition was inconclusive: -47.8%. With `COc1ccc(NC(=O)CCn2c(=O)c3cccn3c3cccnc32)c(OC)c1` the activity change, negative = inhibition was inconclusive: -42.3%. With `O=C(c1ccccn1)N1CCN(S(=O)(=O)c2ccccc2)CC1` the activity change, negative = inhibition was active: -94.2%. For `O=C(O)/C=C/C(=O)NCCc1cccc(Cl)c1`, the activity change, negative = inhibition was inconclusive: -43.2%. For `Cc1ccc(-c2c(C)n([O-])c3c([n+]2=O)CCCCC3)o1`, the activity change, negative = inhibition was inactive: 17.7%. With `CC(=O)Nc1ccc2nc(NC(=O)COc3ccccc3C)sc2c1` the activity change, negative = inhibition was inactive: -11.2%. For `Cc1c(NC(=O)Nc2cccs2)cccc1[N+](=O)[O-]`, the activity change, negative = inhibition was active: -71.6%. With `COc1ccccc1NC(=S)NC(NC(=O)CC(C)C)C(Cl)(Cl)Cl` (centres undefined) the activity change, negative = inhibition was inconclusive: -47.2%. In the case of `CC(CC(=O)Nc1ncc([N+](=O)[O-])s1)c1ccccc1` (centres undefined), the activity change, negative = inhibition is reported as inconclusive: -49.8%. In the case of `COc1ccc(NC(=S)NNC(=S)Nc2cccc(C(F)(F)F)c2)cc1`, the activity change, negative = inhibition is reported as active: -76.1%. For `CCc1nc2oc3cc(OC)ccc3c(=O)c2c(=O)n1Cc1ccco1`, the activity change, negative = inhibition was inactive: -35.2%. With `CCOC(=O)c1c(/N=C/c2c(O)n(-c3ccc(F)cc3)c(=S)[nH]c2=O)sc2c1CCCC2` the activity change, negative = inhibition was inactive: 55.6%. With `CC1C/C(=N/N2C(=O)CSC2=S)CC(C)(C)C1` (centres undefined) the activity change, negative = inhibition was active: -70.2%. With `COc1ccc(O)c(C(C)(C)C)c1` the activity change, negative = inhibition was inconclusive: -44.9%. In the case of `Cc1ccc2nc(/C(C#N)=C\c3ccc(N4CCCCC4)c([N+](=O)[O-])c3)[nH]c2c1`, the activity change, negative = inhibition is reported as active: -61.5%. For `COc1ccc(CC(=O)Nc2cccc(S(=O)(=O)N3CCCCCC3)c2)cc1OC`, the activity change, negative = inhibition was active: -83.1%.
% is set by controls: 0 for no effect and ±100 for the full control effect.
